Measured values reported in paper doi:10.1101/341420.
Results are given in words; binding and its absence hold for the method and conditions named. Binding seen in cells or lysates may run through a third protein. These calls come from enrichment with a bait or labelling near it, and not all partners need be listed.

Sequences of proteins named here, by UniProt entry; tags and fusion partners are left off.
UniProt O95714: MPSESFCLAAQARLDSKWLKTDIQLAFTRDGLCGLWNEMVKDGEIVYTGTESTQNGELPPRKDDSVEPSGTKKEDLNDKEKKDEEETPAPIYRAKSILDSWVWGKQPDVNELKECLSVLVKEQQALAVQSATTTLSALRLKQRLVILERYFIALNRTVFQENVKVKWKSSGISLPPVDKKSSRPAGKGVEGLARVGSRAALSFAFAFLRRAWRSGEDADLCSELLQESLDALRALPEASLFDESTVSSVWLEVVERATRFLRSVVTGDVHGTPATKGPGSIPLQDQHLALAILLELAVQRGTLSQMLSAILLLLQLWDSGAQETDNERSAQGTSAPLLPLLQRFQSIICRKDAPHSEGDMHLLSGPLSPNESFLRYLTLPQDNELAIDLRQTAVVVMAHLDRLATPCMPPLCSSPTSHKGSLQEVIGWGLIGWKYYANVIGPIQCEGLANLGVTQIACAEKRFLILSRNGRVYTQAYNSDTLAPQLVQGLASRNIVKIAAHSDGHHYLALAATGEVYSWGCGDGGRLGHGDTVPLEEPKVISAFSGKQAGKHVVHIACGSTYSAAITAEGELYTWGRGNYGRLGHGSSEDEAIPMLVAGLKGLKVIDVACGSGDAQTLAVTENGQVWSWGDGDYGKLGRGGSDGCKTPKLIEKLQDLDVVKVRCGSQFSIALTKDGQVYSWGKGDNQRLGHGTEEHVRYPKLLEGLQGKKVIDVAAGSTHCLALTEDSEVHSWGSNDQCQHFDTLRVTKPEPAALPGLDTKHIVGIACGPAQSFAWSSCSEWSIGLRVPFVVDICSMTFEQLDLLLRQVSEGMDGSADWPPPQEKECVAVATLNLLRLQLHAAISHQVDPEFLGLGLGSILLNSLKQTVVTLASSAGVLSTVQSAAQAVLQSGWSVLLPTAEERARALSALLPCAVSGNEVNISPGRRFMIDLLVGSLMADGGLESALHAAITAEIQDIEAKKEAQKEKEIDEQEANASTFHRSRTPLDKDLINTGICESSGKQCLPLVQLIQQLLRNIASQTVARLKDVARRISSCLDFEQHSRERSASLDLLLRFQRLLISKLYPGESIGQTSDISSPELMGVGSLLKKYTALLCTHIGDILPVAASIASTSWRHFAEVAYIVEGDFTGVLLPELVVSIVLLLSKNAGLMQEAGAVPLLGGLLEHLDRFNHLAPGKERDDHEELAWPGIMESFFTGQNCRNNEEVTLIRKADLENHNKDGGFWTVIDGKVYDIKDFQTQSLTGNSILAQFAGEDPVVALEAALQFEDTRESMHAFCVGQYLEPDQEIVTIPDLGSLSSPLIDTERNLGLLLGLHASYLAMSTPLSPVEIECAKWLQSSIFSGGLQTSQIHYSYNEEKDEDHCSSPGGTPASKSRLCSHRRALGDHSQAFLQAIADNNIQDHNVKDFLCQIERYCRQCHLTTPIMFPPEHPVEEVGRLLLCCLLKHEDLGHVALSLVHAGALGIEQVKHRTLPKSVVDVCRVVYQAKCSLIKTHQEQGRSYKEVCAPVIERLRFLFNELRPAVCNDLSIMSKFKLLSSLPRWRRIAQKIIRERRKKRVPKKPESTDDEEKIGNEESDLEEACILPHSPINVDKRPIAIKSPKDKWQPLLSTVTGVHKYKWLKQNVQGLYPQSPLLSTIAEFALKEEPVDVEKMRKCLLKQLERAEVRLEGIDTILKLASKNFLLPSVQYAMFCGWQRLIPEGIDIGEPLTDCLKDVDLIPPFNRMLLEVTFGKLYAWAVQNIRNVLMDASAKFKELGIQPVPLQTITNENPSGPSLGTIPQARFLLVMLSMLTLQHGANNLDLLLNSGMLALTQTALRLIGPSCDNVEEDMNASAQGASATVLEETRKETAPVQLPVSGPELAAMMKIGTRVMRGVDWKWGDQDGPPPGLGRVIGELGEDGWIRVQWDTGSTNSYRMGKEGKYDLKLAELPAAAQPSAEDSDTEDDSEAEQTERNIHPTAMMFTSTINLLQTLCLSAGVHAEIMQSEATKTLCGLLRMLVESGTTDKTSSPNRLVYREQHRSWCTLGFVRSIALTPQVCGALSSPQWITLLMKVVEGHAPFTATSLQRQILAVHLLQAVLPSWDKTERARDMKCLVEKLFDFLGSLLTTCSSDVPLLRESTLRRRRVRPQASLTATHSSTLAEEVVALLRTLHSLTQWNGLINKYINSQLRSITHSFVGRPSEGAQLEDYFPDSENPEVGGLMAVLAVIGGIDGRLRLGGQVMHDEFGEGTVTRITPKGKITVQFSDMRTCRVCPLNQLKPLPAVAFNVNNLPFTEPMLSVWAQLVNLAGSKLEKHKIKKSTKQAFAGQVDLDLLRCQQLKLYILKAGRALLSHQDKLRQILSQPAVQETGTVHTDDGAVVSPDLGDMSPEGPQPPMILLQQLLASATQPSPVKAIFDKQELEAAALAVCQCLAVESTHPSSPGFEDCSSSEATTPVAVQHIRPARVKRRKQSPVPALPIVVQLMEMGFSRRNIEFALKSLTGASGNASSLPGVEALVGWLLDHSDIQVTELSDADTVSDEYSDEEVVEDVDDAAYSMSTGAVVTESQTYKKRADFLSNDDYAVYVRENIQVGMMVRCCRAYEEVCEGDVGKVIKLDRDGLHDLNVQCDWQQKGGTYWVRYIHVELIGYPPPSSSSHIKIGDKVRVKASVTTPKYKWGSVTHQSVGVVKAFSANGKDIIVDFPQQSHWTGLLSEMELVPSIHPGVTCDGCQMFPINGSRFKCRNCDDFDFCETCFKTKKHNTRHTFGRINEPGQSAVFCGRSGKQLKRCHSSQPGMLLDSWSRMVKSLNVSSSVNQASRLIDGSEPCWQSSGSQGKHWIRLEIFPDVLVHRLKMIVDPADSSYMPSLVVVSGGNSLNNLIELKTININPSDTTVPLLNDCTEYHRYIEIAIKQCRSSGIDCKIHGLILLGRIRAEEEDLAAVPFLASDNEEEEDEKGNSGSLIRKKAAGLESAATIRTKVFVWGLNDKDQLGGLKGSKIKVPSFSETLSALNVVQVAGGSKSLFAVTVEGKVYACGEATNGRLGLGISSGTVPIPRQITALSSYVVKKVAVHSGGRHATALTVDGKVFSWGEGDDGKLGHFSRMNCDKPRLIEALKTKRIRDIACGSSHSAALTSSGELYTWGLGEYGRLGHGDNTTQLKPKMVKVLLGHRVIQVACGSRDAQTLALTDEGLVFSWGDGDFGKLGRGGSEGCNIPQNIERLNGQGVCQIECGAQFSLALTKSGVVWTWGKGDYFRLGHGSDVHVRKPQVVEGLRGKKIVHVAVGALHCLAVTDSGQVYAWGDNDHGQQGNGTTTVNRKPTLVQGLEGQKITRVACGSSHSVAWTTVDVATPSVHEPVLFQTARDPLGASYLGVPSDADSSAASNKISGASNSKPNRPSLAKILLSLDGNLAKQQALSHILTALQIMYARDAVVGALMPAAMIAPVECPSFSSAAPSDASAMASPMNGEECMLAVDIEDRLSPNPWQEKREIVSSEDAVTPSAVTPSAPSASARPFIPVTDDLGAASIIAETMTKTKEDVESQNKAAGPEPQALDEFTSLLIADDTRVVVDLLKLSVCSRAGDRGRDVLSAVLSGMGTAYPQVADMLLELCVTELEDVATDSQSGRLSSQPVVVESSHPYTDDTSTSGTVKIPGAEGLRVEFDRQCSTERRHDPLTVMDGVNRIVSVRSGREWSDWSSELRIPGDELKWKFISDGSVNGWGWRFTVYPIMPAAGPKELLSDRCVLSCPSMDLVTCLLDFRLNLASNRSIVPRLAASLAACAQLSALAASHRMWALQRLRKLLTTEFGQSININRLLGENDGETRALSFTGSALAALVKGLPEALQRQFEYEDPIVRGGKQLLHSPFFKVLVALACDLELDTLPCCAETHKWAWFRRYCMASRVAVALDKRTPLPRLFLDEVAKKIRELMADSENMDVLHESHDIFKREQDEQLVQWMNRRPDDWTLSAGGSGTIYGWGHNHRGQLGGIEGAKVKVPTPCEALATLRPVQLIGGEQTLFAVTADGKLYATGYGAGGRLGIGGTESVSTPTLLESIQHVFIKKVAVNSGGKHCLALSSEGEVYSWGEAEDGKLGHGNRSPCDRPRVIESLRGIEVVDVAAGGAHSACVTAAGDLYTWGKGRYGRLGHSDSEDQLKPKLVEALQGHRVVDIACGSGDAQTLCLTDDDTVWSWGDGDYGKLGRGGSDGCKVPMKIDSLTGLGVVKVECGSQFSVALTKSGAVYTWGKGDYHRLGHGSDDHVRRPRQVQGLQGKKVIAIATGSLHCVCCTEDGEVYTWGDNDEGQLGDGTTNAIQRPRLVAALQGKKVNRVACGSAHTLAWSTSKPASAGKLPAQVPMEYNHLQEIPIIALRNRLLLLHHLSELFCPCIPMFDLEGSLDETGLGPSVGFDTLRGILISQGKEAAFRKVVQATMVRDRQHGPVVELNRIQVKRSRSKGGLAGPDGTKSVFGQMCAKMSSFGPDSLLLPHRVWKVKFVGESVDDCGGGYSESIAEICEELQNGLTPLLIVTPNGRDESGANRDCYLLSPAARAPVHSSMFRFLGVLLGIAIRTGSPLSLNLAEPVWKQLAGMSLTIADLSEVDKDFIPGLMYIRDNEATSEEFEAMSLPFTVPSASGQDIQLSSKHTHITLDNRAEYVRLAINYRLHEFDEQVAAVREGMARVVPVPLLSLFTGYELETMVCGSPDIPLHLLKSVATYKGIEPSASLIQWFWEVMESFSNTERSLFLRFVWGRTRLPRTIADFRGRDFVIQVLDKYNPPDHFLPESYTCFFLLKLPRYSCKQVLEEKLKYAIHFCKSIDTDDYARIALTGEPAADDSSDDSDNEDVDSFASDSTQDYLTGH
UniProt P27694: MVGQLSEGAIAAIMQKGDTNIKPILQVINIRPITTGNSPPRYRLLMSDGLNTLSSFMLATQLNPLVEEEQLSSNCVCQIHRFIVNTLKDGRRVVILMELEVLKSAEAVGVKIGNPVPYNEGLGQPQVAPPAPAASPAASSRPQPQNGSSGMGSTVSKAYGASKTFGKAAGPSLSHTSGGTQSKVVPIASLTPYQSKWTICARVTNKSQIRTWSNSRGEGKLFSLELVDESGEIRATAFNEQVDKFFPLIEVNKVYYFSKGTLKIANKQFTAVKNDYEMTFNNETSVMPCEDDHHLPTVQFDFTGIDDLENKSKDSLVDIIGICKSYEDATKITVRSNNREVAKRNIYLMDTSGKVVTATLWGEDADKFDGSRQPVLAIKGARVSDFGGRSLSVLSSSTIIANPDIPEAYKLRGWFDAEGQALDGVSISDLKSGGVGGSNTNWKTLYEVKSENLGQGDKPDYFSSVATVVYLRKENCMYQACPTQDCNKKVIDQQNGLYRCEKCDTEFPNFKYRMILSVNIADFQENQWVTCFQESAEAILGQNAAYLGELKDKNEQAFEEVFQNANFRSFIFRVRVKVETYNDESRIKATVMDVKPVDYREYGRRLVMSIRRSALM

B1: RMI1 (protein, UniProt Q9H9A7 1-625)
chain: MNVTSIALRAETWLLAAWHVKVPPMWLEACINWIQEENNNVNLSQAQMNKQVFEQWLLTDLRDLEHPLLPDGILEIPKGELNGFYALQINSLVDVSQPAYSQIQKLRGKNTTNDLVTAEAQVTPKPWEAKPSRMLMLQLTDGIVQIQGMEYQPIPILHSDLPPGTKILIYGNISFRLGVLLLKPENVKVLGGEVDALLEEYAQEKVLARLIGEPDLVVSVIPNNSNENIPRVTDVLDPALGPSDEELLASLDENDELTANNDTSSERCFTTGSSSNTIPTRQSSFEPEFVISPRPKEEPSNLSIHVMDGELDDFSLEEALLLEETVQKEQMETKELQPLTFNRNADRSIERFSHNPNTTNNFSLTCKNGNNNWSEKNVSEQMTNEDKSFGCPSVRDQNRSIFSVHCNVPLAHDFTNKEKNLETDNKIKQTSSSDSHSLNNKILNREVVNYVQKRNSQISNENDCNLQSCSLRSSENSINLSIAMDLYSPPFVYLSVLMASKPKEVTTVKVKAFIVTLTGNLSSSGGIWSITAKVSDGTAYLDVDFVDEILTSLIGFSVPEMKQSKKDPLQYQKFLEGLQKCQRDLIDLCCLMTISFNPSLSKAMVLALQDVNMEHLENLKKRLNK

molecular target: HERC2 (human (endogenous in HeLa and HCT116)) (UniProt O95714); assay: affinity purification with mass spectrometry

binding, binds:
BLM (from UniProt P54132 1-1417)
RPA1 (from UniProt P27694 1-616)
B1
